Binding data for 2 molecules are collected here from US20260184811A1 (CEREIUS, published 2026).

Chains of the proteins cited; added tags and fusions are not shown. Residues count along the entry.
UniProt P21860, residues 20-643: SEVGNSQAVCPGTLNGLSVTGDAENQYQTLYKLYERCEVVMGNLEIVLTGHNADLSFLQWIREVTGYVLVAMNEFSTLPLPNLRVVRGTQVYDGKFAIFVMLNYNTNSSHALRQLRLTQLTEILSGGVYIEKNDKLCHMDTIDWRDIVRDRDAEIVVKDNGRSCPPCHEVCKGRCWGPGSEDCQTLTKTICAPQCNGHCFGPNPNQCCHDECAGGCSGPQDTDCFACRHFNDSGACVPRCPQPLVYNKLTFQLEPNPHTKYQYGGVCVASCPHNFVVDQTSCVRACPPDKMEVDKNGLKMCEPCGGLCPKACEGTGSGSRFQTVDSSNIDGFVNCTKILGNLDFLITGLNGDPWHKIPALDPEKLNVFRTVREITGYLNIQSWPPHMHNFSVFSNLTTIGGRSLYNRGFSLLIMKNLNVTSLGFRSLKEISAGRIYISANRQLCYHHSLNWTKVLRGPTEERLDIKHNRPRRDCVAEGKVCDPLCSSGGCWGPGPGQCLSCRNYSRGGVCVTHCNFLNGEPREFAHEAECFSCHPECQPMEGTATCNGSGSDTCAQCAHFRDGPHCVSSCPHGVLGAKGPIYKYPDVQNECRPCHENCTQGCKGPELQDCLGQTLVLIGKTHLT

No constants are given. Whether binding was seen depends on the method and setting. Some results given as binding are weak or reduced against the parent protein; the word gives no strength. For some of these results: Sequences can lack the tags named with a protein.

The target of assay [1] is hHER3-Fc (human) (UniProt P21860). In words: ELISA specificity panel on ErbB family receptors, VHH titrated, A450. On the technique in general: An ELISA detects its analyte on a solid surface through an enzyme-linked reagent.
Assay [2] addresses hEGFR (ECD). The description is as above.
Assay [3] addresses T1, hHER4-Fc (human) (UniProt Q15303).
T1 sequence (receptor-Fc fusion, looked up): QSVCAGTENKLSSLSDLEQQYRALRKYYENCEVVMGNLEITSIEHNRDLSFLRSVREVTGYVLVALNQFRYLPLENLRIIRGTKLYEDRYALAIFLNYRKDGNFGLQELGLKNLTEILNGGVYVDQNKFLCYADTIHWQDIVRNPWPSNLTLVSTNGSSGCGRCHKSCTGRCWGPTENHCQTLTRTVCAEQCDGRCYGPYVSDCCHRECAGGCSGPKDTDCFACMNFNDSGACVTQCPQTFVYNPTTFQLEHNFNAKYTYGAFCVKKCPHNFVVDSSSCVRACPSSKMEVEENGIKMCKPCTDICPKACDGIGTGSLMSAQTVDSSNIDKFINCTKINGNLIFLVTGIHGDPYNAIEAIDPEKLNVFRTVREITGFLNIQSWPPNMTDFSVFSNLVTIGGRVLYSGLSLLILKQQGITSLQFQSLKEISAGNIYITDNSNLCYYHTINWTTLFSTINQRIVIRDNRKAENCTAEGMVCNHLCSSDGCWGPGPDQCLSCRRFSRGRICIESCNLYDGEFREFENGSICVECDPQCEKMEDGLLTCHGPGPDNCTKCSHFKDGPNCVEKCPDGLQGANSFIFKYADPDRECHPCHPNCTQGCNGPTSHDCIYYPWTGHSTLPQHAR
Described as above.

Assay [4] deals with human HER2 receptor (human, UniProt P04626). In words: ELISA on human HER2 receptor, purified VHH titrated, A450.

B1: VHH_130 (VHH)
VHH: EVQLVESGGGLVQAGGSLRLSCAASGITFSINTMGWYRQAPGKQRELVALISSIGDTYYADSVRGRFTISRDNAKNTVYLQMNSLKPEDTAVYYCRRFRTAAQGTDYWGQGTQVTVSS
notes: also called VHH ID 130
On to B1, for which the binding entry in assay [1], in assay [2] and in assay [3] was “no binding (tested: 10000 nM)” each time.

B2: VHH_108 (VHH)
VHH: QVQLVESGGGLVQAGGSLRLSCAASGRTFSSYAMGWFRQAPGLEREFVAAIARGGVSTGYADSVKGRFAISRDNAKNMVYLQMNSLKPEDTAVYYCATYFWGSPHYWGQGTQVTVSS
notes: also called VHH ID 108
Consider B2, for which the binding entry in assay [4] is “binds”.
